# According to the supplement of paper PMC12595434, “Development of retinoid nuclear receptor pathway antagonists through targeting aldehyde dehydrogenase 1A3” (iScience, 2025):
# Protein sequences, listed by entry. Tags and fused reporters are not part of them. Lines headed by an entry give the natural chain unless they say otherwise; changes in a name come on top.
# UniProt Q8TED0: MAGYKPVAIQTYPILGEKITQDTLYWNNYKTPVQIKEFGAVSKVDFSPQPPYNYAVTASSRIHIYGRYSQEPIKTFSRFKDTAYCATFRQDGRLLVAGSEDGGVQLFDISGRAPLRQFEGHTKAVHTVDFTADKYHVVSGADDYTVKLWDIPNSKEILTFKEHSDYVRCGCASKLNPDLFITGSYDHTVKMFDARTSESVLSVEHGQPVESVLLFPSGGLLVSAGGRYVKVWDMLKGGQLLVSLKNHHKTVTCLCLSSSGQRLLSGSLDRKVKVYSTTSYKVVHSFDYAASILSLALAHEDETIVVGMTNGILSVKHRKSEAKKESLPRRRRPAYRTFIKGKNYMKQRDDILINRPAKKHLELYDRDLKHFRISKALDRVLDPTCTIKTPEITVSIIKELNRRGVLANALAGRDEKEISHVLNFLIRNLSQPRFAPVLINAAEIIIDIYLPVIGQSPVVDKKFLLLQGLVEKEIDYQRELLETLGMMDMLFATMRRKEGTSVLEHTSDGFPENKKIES
# UniProt Q8WUY1: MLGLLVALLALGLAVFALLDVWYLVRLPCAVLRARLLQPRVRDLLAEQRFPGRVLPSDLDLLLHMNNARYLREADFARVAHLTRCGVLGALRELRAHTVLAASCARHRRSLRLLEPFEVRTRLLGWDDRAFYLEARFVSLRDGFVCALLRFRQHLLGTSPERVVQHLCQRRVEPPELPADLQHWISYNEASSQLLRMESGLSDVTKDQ
# UniProt Q8NAT1: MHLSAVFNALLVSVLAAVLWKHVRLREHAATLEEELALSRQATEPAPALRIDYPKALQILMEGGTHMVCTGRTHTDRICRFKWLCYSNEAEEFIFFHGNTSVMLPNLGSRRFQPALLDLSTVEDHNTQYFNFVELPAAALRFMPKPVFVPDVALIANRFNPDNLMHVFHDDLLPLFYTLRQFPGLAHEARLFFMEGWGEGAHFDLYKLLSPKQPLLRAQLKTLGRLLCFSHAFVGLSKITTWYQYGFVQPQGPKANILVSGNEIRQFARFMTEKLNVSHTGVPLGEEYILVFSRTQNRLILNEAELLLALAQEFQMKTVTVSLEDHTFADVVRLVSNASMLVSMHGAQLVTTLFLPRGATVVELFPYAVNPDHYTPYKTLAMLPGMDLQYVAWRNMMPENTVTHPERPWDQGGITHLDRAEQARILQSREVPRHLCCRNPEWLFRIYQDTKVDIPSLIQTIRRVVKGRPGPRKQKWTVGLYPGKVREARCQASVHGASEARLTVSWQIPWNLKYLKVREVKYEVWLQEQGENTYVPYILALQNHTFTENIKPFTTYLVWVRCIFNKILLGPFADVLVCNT
# UniProt Q8NAN2: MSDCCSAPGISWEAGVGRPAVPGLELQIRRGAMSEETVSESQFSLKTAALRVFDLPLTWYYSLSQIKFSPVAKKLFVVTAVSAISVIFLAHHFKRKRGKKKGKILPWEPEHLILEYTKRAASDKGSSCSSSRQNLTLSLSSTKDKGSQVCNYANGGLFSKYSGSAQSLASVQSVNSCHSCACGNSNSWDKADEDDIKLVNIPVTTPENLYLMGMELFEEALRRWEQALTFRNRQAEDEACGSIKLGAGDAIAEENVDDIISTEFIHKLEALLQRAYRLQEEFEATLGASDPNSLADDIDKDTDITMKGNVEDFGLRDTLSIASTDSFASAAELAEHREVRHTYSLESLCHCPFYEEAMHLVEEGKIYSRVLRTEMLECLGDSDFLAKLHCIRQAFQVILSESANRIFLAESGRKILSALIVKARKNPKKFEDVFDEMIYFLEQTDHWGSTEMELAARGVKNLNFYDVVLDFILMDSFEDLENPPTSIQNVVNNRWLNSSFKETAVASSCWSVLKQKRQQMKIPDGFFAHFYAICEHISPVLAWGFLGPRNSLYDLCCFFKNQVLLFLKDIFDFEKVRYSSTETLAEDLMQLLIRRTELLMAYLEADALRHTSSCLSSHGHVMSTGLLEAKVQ
# UniProt Q8TAV0: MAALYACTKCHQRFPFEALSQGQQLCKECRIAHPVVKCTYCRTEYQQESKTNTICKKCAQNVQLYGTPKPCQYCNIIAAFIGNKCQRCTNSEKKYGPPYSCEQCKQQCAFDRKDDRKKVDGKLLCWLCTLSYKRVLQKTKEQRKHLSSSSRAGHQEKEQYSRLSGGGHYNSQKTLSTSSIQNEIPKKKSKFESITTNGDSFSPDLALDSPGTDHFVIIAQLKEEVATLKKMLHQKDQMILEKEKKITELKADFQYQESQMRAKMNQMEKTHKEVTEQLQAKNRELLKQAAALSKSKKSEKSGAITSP
# UniProt Q8TDP1: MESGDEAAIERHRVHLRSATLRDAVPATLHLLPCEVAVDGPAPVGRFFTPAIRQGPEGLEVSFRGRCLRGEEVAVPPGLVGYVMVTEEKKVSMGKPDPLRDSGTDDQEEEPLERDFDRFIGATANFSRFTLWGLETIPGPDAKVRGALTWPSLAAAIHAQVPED
# UniProt Q8TCE6, whole entry: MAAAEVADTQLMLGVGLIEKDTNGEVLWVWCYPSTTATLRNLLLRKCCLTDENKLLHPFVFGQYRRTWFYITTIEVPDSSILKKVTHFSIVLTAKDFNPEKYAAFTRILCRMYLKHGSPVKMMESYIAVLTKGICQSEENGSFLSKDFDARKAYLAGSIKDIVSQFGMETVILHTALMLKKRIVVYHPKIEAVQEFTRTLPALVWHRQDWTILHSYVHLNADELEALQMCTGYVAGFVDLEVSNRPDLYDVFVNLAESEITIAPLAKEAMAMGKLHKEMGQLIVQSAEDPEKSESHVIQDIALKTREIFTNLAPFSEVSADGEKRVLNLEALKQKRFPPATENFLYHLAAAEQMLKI
# UniProt Q8TBZ6: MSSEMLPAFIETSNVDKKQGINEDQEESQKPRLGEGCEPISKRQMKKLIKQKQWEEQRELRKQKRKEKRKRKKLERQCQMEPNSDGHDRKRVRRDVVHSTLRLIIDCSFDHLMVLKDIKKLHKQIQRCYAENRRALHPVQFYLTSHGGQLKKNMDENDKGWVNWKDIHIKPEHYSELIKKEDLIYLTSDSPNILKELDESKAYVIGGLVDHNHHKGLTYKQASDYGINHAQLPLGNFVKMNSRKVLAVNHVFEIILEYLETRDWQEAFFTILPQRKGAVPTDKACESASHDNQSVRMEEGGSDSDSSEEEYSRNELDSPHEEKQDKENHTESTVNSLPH
# UniProt Q8WUA2: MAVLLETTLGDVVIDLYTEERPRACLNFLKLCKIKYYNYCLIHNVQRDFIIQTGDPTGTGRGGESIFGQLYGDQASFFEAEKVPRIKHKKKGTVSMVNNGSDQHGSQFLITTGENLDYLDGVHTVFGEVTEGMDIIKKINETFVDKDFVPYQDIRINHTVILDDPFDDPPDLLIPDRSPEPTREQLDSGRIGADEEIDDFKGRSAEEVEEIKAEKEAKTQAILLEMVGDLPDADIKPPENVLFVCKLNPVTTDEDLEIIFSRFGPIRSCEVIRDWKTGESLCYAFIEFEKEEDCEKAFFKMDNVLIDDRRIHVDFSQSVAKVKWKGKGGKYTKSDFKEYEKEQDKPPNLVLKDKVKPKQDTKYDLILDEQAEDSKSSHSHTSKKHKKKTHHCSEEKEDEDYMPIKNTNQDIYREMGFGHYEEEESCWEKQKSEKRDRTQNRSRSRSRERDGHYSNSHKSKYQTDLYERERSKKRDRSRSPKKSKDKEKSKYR
# UniProt Q8NFH4: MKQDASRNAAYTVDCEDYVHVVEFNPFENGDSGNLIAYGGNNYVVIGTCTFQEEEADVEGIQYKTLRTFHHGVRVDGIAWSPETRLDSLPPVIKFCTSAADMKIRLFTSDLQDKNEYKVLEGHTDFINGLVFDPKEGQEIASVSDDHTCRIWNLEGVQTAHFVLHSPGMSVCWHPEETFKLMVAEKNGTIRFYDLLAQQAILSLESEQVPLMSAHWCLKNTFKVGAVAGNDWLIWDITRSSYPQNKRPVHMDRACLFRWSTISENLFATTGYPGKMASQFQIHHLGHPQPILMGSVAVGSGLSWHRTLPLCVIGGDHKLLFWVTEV
# UniProt Q8WU10: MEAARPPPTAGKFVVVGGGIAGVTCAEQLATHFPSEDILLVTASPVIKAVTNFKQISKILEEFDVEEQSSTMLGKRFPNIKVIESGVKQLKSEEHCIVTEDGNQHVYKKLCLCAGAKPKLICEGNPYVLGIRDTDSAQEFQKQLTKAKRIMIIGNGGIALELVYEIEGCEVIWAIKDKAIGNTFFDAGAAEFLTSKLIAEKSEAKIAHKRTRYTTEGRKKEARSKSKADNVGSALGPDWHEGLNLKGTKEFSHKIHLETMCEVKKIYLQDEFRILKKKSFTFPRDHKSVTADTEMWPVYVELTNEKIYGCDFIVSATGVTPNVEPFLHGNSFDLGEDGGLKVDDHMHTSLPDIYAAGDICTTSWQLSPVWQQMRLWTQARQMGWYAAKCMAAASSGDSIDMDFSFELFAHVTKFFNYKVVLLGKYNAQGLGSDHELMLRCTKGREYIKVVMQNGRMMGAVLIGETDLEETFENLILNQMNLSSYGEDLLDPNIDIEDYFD
# UniProt Q8WVV9: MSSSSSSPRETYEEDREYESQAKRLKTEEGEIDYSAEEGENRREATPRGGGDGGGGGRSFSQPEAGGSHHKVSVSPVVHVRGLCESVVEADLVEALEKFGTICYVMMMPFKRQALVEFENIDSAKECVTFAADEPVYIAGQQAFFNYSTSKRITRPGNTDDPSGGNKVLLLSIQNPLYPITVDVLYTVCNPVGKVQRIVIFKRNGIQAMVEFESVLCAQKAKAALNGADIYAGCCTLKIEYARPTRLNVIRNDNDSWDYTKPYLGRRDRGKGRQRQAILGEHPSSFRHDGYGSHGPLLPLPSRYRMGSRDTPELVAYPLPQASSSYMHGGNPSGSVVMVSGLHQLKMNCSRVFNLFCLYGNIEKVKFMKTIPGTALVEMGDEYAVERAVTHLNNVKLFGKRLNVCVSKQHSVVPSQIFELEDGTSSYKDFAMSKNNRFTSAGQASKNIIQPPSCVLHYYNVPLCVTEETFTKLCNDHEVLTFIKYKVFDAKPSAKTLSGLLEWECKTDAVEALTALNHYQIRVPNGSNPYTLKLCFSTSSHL
# UniProt Q8TDR2: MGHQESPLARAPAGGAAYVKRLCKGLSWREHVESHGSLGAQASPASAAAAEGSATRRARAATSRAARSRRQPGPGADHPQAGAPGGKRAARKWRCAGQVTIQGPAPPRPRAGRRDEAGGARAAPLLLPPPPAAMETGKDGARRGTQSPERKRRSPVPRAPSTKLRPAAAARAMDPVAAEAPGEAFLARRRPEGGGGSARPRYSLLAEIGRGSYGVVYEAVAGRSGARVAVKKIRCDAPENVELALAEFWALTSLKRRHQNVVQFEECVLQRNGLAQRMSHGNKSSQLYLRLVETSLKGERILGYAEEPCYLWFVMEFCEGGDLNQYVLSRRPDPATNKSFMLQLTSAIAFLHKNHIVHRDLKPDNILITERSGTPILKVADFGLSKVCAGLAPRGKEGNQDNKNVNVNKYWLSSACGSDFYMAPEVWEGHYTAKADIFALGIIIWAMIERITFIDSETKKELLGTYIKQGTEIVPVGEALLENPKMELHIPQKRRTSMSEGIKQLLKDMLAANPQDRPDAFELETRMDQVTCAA
# UniProt Q8TDN6: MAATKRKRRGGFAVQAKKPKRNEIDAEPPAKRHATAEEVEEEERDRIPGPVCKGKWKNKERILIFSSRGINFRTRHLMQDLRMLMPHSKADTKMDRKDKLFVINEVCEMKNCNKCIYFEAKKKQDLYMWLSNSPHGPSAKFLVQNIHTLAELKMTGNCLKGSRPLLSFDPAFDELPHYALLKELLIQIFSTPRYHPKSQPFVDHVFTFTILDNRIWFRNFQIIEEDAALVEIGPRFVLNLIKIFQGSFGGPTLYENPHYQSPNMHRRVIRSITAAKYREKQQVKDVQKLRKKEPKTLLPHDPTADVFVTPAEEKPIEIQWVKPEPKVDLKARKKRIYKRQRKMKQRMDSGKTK
# UniProt Q8NC60: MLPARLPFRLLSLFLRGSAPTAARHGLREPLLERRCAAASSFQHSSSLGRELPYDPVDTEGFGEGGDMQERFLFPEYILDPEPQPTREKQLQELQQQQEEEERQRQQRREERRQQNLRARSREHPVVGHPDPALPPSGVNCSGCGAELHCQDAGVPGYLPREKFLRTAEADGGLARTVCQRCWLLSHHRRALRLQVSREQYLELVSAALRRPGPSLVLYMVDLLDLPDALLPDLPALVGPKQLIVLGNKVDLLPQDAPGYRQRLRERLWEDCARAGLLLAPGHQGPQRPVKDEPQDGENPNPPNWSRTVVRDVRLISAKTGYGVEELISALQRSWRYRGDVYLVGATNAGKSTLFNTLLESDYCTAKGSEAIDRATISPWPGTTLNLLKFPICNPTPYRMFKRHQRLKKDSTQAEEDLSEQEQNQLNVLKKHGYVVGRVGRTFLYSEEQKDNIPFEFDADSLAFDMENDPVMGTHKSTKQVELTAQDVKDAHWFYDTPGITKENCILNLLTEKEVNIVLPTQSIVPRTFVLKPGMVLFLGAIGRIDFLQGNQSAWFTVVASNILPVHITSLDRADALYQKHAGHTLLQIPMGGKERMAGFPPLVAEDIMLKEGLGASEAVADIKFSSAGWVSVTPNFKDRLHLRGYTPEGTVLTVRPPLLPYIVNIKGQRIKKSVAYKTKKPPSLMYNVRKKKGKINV
# This is one part of the list. The data scatter; read single values as rough.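 Many melting curves are irregular; where none melted, Tm was taken as 64 °C.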
# Compound: CCc1cnccc1C(=O)Nc1cc2c(cc1F)NC(=O)CC2
# Assay: melting temperature shift (DMSO Tm minus MBE1-treated Tm) in cellular thermal proteome profiling; higher = less thermal stabilization by MBE1 (negative = stabilized by MBE1)
# Conditions: A375
Target,melting temperature shift (MBE1 concentration: 100 nM) [°C],melting temperature shift (MBE1 concentration: 1 uM) [°C]
FANCB (UniProt Q8NB91),-1.59,0.0916
UniProt Q8ND76,0,0.269
ARL14EP (UniProt Q8N8R7),-2.1,-0.207
UniProt Q8TEB9,-0.0939,-0.255
GNPDA2 (UniProt Q8TDQ7),-2.66,1.68
NUP210 (UniProt Q8TEM1),-0.154,-0.208
UTP15 (UniProt Q8TED0),-0.582,-0.32
UniProt Q8WV16,3.32,0.0611
UniProt Q8NC69,-0.847,5.61
UniProt Q8WTT2,-0.295,-0.122
PPHLN1 (UniProt Q8NEY8),0.0961,-1.78
UniProt Q8NCP5,-0.0305,-0.202
AVL9 (UniProt Q8NBF6),-0.664,0.751
NAXE (UniProt Q8NCW5),-2.84,1.4
UniProt Q8WUN7,-1.32,-0.268
UniProt Q8NFG4,-0.132,0.527
DDX54 (UniProt Q8TDD1),-0.237,-0.0769
THEM6 (UniProt Q8WUY1),0.765,1.36
NAV1 (UniProt Q8NEY1),-0.574,-0.719
UniProt Q8WUW1,-2.7,-2.35
WDR36 (UniProt Q8NI36),0.904,0
UniProt Q8NAT1,-1.28,-0.177
UniProt Q8TDI0,-0.224,-0.179
FAM73A (UniProt Q8NAN2),0.141,-1.42

Target,melting temperature shift (MBE1 concentration: 100 nM) [°C],melting temperature shift (MBE1 concentration: 1 uM) [°C]
UniProt Q8TAV0,-0.541,-0.282
UniProt Q8NDT2,-0.57,-0.937
MRPL30 (UniProt Q8TCC3),1.03,0.275
RNASEH2C (UniProt Q8TDP1),0.147,-0.055
SLC30A5 (UniProt Q8TAD4),-1.17,-0.657
TBCK (UniProt Q8TEA7),-0.64,-1.45
UniProt Q8NCD3,-2.69,-0.365
UniProt Q8TCE6,1.48,1.61
CHMP7 (UniProt Q8WUX9),-0.56,0.155
FAM98A (UniProt Q8NCA5),1.11,0.134
UniProt Q8TBE0,1.93,2.01
NFATC2IP (UniProt Q8NCF5),-2.09,-0.809
BCL7C (UniProt Q8WUZ0),0.295,0.583
EXOC6 (UniProt Q8TAG9),-0.92,-0.732
XXYLT1 (UniProt Q8NBI6),-0.825,0.765
CANT1 (UniProt Q8WVQ1),-0.698,0.651
TRMT10A (UniProt Q8TBZ6),-0.376,-0.349
SCFD1 (UniProt Q8WVM8),0.482,-0.122
GADD45GIP1 (UniProt Q8TAE8),-0.354,-2.11
ABHD11 (UniProt Q8NFV4),-3.34,0.758
FLAD1 (UniProt Q8NFF5),0.867,0.177
ABCF1 (UniProt Q8NE71),-0.523,0.14
UniProt Q8WUY8,0.891,0.837
VPS37A (UniProt Q8NEZ2),-0.583,-0.67

Target,melting temperature shift (MBE1 concentration: 100 nM) [°C],melting temperature shift (MBE1 concentration: 1 uM) [°C]
PPIL4 (UniProt Q8WUA2),-0.299,-0.736
HM13 (UniProt Q8TCT9),-0.888,0.261
DTX3L (UniProt Q8TDB6),-1.54,0.0961
DCAF11 (UniProt Q8TEB1),-2.06,0.415
UBA3 (UniProt Q8TBC4),0.721,0.159
GOLGA5 (UniProt Q8TBA6),-1.08,-0.238
UniProt Q8NHM5,-4.08,-3.66
NUP37 (UniProt Q8NFH4),-0.902,0.134
DDHD1 (UniProt Q8NEL9),0.228,0.00611
KIAA1524 (UniProt Q8TCG1),-0.589,-0.25
PIP4K2C (UniProt Q8TBX8),-0.198,-0.47
UniProt Q8NHX9,-1.67,3.53
PDPR (UniProt Q8NCN5),-0.302,-0.0537
UniProt Q8NFJ9,1.36,1.58
FBXO30 (UniProt Q8TB52),1.39,1.83
TTL (UniProt Q8NG68),-0.684,-0.55
RNF149 (UniProt Q8NC42),2.29,-0.733
UniProt Q8WUD1,-6.25,-3.2
UniProt Q8TEK3,-0.701,-0.102
PYROXD1 (UniProt Q8WU10),0.924,-0.635
HSD17B11 (UniProt Q8NBQ5),-0.812,0.751
UniProt Q8WVV9,-0.532,-0.211
PPTC7 (UniProt Q8NI37),0.11,0.171
UBAC2 (UniProt Q8NBM4),1.17,0.366

Target,melting temperature shift (MBE1 concentration: 100 nM) [°C],melting temperature shift (MBE1 concentration: 1 uM) [°C]
CEP192 (UniProt Q8TEP8),-2.16,-1.06
UniProt Q8NDZ2,-0.788,-2.08
NHLRC2 (UniProt Q8NBF2),-0.0305,0.605
HELB (UniProt Q8NG08),-0.349,0.414
EIF1AD (UniProt Q8N9N8),0.429,0.311
PI4K2B (UniProt Q8TCG2),0.928,0.391
RASSF8 (UniProt Q8NHQ8),-0.762,0.141
SPATA20 (UniProt Q8TB22),1.15,1.15
KRI1 (UniProt Q8N9T8),-0.122,-0.359
UniProt Q8NFZ0,-1.44,-4.29
TXNDC5 (UniProt Q8NBS9),-1.17,-0.293
JMY (UniProt Q8N9B5),-0.461,0.174
GDAP1 (UniProt Q8TB36),-1.36,-0.0939
STK35 (UniProt Q8TDR2),-0.568,-0.154
BRIX1 (UniProt Q8TDN6),-0.503,0.651
BLOC1S5 (UniProt Q8TDH9),0.0427,0.302
PPP1R13L (UniProt Q8WUF5),-1.35,-1.56
ZCRB1 (UniProt Q8TBF4),-2.15,-0.0671
RNF214 (UniProt Q8ND24),-0.263,-0.442
NPEPL1 (UniProt Q8NDH3),-3.29,-0.704
NOA1 (UniProt Q8NC60),-1.66,-1.18
UniProt Q8NB15,0.452,-0.995
UniProt Q8TDW0,-0.355,0.837

# As entered above:
# Value of ABHD11 (UniProt Q8NFV4) under melting temperature shift (MBE1 concentration: 1 uM) [°C]: 0.758
# Value of SPATA20 (UniProt Q8TB22) under melting temperature shift (MBE1 concentration: 1 uM) [°C]: 1.15
